The values are deposited in ChEMBL (CHEMBL3988442, “University of Dundee, Small-Polar-MMV Screening Library” (2021)).

Chains of the proteins cited; added tags and fusions are not shown. Residues count along the entry.
UniProt I6X8D2, whole entry: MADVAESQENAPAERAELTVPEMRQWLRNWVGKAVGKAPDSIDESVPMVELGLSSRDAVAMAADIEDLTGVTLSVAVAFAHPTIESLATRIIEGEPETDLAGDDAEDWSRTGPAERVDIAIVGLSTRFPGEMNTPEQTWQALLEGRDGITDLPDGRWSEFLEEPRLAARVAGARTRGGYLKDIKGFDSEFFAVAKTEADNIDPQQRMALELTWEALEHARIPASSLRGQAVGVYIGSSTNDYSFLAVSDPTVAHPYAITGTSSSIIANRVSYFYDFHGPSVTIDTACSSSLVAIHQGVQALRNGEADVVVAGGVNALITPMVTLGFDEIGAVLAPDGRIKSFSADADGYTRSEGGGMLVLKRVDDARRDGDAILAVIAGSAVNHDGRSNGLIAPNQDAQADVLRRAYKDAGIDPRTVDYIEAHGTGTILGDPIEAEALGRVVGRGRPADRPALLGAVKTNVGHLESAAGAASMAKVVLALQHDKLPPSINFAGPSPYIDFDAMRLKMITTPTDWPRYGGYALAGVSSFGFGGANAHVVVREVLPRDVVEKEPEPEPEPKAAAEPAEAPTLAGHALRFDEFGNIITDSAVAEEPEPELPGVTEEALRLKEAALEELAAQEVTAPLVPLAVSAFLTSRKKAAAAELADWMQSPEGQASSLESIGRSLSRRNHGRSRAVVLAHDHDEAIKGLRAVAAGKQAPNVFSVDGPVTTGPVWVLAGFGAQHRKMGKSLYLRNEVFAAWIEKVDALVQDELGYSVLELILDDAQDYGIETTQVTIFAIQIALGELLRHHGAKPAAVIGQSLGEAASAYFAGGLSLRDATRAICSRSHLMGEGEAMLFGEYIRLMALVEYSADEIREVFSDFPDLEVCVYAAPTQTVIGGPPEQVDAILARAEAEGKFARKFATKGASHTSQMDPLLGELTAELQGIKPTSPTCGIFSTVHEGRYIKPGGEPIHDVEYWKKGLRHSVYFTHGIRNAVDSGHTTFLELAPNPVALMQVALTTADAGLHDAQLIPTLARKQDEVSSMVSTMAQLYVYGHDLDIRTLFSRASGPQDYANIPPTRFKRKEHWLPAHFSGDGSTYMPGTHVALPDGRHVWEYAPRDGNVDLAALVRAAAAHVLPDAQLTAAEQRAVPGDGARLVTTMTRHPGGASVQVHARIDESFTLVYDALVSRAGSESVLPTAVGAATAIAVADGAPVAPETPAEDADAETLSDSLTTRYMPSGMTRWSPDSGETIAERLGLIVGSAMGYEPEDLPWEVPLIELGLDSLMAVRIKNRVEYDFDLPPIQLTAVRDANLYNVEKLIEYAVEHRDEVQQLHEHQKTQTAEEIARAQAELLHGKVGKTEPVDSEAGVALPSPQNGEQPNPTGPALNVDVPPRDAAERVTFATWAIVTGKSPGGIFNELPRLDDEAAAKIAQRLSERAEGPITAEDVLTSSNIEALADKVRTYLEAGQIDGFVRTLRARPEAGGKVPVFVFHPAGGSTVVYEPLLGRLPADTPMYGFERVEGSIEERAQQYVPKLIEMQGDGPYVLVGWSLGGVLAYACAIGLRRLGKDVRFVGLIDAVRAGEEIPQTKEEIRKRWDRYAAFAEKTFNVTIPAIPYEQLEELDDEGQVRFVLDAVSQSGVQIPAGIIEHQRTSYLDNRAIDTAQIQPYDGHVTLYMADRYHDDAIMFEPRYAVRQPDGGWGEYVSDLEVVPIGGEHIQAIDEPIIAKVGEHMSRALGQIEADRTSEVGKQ
UniProt Q4DA54, 1-478: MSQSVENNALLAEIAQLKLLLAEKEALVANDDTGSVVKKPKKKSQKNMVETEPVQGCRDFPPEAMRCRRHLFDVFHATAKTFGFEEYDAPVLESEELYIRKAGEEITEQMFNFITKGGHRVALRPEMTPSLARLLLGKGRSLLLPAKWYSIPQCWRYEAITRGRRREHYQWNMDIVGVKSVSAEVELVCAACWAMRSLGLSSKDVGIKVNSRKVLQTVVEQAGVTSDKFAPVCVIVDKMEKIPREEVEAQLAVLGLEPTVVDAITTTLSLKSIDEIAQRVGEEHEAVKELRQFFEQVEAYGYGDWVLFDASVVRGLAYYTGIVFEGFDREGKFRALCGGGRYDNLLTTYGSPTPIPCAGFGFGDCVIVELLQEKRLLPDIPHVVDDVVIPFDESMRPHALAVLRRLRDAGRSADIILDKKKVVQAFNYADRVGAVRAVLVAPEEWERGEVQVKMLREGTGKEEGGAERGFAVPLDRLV
UniProt P9WFT3, whole entry: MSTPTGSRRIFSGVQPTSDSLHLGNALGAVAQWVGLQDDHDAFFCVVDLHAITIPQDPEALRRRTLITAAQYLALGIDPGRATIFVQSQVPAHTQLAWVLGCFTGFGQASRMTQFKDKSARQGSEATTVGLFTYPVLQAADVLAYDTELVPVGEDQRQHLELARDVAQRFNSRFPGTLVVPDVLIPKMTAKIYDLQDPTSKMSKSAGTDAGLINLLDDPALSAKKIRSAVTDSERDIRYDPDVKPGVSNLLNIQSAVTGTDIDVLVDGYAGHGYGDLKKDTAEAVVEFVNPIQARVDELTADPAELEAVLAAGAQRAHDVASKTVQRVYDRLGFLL
UniProt P9WPC5, whole entry: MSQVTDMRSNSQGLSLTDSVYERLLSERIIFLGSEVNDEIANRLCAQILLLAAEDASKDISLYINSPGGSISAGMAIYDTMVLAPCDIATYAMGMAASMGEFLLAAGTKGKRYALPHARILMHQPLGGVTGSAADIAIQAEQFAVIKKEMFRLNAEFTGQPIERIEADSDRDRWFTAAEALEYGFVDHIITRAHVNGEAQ
UniProt P9WPC3, whole entry partner: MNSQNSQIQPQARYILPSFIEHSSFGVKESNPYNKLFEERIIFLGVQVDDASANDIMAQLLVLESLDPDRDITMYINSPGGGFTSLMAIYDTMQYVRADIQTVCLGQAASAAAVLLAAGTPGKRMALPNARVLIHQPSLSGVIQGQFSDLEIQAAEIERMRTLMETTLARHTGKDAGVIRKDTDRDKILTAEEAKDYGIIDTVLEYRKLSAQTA

Pks13 thioesterase: 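Polyketide synthase Pks13, Mycobacterium tuberculosis (UniProt I6X8D2). Enzyme assay of the thioesterase domain of polyketide synthase 13; the read-out is not stated. Tested at 30 µM. Higher reads as stronger inhibition (inferred from which compounds were picked for retests). About 67,000 compounds were tested under these conditions; 0.46% (about 300) showed 50% or more at least once.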
TcHisRS: 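Histidine-tRNA ligase, Trypanosoma cruzi CL Brener (UniProt Q4DA54). Enzyme assay of histidyl-tRNA synthetase; the read-out is not stated. Tested at 30 µM. Higher reads as stronger inhibition (inferred: compounds with an IC50 in retests scored well above the rest). Of about 69,000 compounds tested this way, about 31 (0.045%) reached 50% or more in at least one test.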
MtTrpRS: 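Tryptophan-tRNA ligase, Mycobacterium tuberculosis (UniProt P9WFT3). Enzyme assay of tryptophanyl-tRNA synthetase; the read-out is not stated. Concentration: 10 µM. Direction is not recorded; retested compounds ran higher, which suggests that high means inhibition. Size under these conditions: about 65,000 compounds, about 64 of them at 50% or above in at least one test.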
ClpP1P2: 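ClpP1P2, Mycobacterium tuberculosis (UniProt P9WPC5 and UniProt P9WPC3). Protease assay of ClpP1P2, read by the AMC dye that it sets free. Concentration: 50 µM. Higher reads as stronger inhibition, judged from the few compounds that gave an IC50. Most other retested compounds had strongly negative values. About 69,000 compounds were tested under these conditions; 0.015% (about 10) showed 50% or more at least once.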

The filed quantity is “Percent Effect” (%). How 0% and 100% were set is not recorded. Most values in the screen are low, and negative values occur. Compounds were drawn at random from those tested, without regard to their results.

Result for CCC(CCNCc1cnc(C2CCC2)s1)N1CCCC1=O (centres unmarked) was Pks13 thioesterase: -5.99%; TcHisRS: 4.082%; MtTrpRS: -3.502%; ClpP1P2: 3.612%. Result for CC(Cn1cc(Cl)cn1)C(=O)Nc1ccc(CN2CCCCCC2)cc1 (centres unmarked) was Pks13 thioesterase: -8.592%; TcHisRS: 1.149%; MtTrpRS: 13.74%; ClpP1P2: -11.01%. Cc1cnc(C(=O)N2CCN3C[C@H](OCc4cccnc4)C[C@H]3C2)cn1 read Pks13 thioesterase: -2.9%; TcHisRS: 1.961%; MtTrpRS: -8.444%; ClpP1P2: -17.53%. With CN(CCOc1ccccc1F)S(=O)(=O)CC1CCOCC1 the screen gave Pks13 thioesterase: -6.722%; TcHisRS: 2.105%; MtTrpRS: -1.242%; ClpP1P2: -5.236%. For Cc1ccc(CN2CCCC3(COCCN(Cc4c[nH]nn4)C3)C2)o1 (centres unmarked) the result was Pks13 thioesterase: -44.78%; TcHisRS: 4.865%; MtTrpRS: 3.463%; ClpP1P2: -1.448%.

Fc1ccc(CN2Cc3nccn3CC(CN3CCOCC3)C2)cc1 (centres unmarked) gave Pks13 thioesterase: -3.31%; TcHisRS: 14.29%; MtTrpRS: -0.382%; ClpP1P2: 8.879%. CCc1ccccc1OC1CN(C(=O)c2cccs2)C1 read Pks13 thioesterase: 9.057%; TcHisRS: 1.734%; MtTrpRS: 15.47%; ClpP1P2: 3.915%. CN(C)c1cccc(C(=O)N2CCCC2c2ncc3c(n2)CCNC3)c1 (centres unmarked) read Pks13 thioesterase: 1.726%; TcHisRS: 14.29%; ClpP1P2: -3.273%. With COCC(C)NC(=O)c1nnn(-c2ccc(F)cc2)n1 (centres unmarked) the screen gave Pks13 thioesterase: -20.17%; TcHisRS: -3.333%; MtTrpRS: -3.431%; ClpP1P2: 1.894%. With Fc1cc(CN2CCCC2Cn2cncn2)c2ncccc2c1 (centres unmarked) the screen gave Pks13 thioesterase: -26.93%; TcHisRS: 7.872%; MtTrpRS: 15.29%; ClpP1P2: -14.74%.

CCCn1nc(-c2nc(COc3ccccc3)no2)ccc1=O gave Pks13 thioesterase: 5.561%; TcHisRS: 10.34%; MtTrpRS: 2.593%; ClpP1P2: 4.977%. Result for CNc1nc(CNC(=O)Nc2ccccc2OC(C)C)cs1 was Pks13 thioesterase: 4.809%; TcHisRS: 2.89%; MtTrpRS: 23.78%; ClpP1P2: -2.472%. For Cc1nc2ncnn2c(C)c1CCC(=O)Nc1cccn(C)c1=O the result was Pks13 thioesterase: -14.09%; TcHisRS: 5.263%; MtTrpRS: -6.208%; ClpP1P2: -8.936%. c1ccc(Cc2cccc(C3CCCN3C3CCOCC3)n2)cc1 (centres unmarked) read Pks13 thioesterase: -7.939%; TcHisRS: 15.15%; MtTrpRS: -6.634%; ClpP1P2: 1.264%. Result for CC(COc1ccccc1F)NC(=O)N[C@@H]1C=C[C@H](CO)C1 (some centres unmarked) was Pks13 thioesterase: -25.17%; TcHisRS: 2.02%; MtTrpRS: 3.936%; ClpP1P2: -4.946%.

Result for COc1ccc(CNC[C@H]2COCc3nc4cc(F)ccc4n32)cn1 was TcHisRS: 10.89%; MtTrpRS: -1.732%; ClpP1P2: 3.758%. Cn1cc(C(=O)Nc2cccc(CCN3CCCC3)c2)ccc1=O gave Pks13 thioesterase: -22.62%; TcHisRS: 2.941%; MtTrpRS: -1.833%; ClpP1P2: -0.1072%. CN(C)c1cc(C(=O)N2CCN(c3cc(C#N)ccn3)CC2)ccn1 gave Pks13 thioesterase: -2.253%; TcHisRS: 3.812%; MtTrpRS: -6.15%; ClpP1P2: -83.27%. O=C1COc2ccc(C(=O)NS(=O)(=O)c3ccccc3F)cc2N1 read Pks13 thioesterase: -7.354%; TcHisRS: 2.312%; MtTrpRS: -2.534%; ClpP1P2: 0.3047%. With Cc1ccc(C(=O)NS(=O)(=O)c2cc(Cl)ccc2Cl)c(=O)[nH]1 the screen gave Pks13 thioesterase: -4.264%; TcHisRS: -1.149%; MtTrpRS: -2.041%; ClpP1P2: 0.5568%.

With COCCCN1CC2(CCCCN2C(=O)C2CCCCC2)CC1=O (centres unmarked) the screen gave Pks13 thioesterase: -9.508%; TcHisRS: 2.532%; MtTrpRS: -8.738%; ClpP1P2: 1.318%. Cc1cc(NC2CC3(CCN(Cc4cscn4)C3)C2)ncn1 (centres unmarked) read Pks13 thioesterase: -9.756%; TcHisRS: 1.429%; MtTrpRS: -1.634%; ClpP1P2: -28.46%. CC(=O)N1CCCC(c2ccc(C(=O)NC3CCCC3)cn2)C1 (centres unmarked) read Pks13 thioesterase: -2.785%; TcHisRS: 0%; ClpP1P2: 0.4122%. COC[C@@H]1CC[C@H]2[C@H](CCN2S(=O)(=O)c2cccc(C)c2)O1 read Pks13 thioesterase: -6.592%; TcHisRS: 2.732%; MtTrpRS: -6.999%; ClpP1P2: 1.567%. CCC(C)NS(=O)(=O)Cc1cccc(NC(=O)C2=CCCC2)c1 (centres unmarked) gave Pks13 thioesterase: -7.083%; TcHisRS: 11.11%; MtTrpRS: -0.2601%; ClpP1P2: 1.997%.

With COCc1ccc(C(=O)N2CCN(CC=C(C)C)[C@@H]3CS(=O)(=O)C[C@@H]32)o1 the screen gave Pks13 thioesterase: -7.186%; TcHisRS: -0.5435%; MtTrpRS: 0.2901%; ClpP1P2: -4.317%. CN(Cc1ccco1)C(=O)NCC(c1cccs1)N(C)C (centres unmarked) gave Pks13 thioesterase: -39.68%; TcHisRS: 5.195%; MtTrpRS: -7.121%; ClpP1P2: -2.214%. Cc1cc(NCCO)nc(N2CCN(C)CC2)c1C#N read Pks13 thioesterase: -7.661%; TcHisRS: 5.366%; MtTrpRS: -1.814%; ClpP1P2: -15.15%. CC1CN(C)CCN1C(=O)c1ccn(-c2ccc(F)cc2)n1 (centres unmarked) gave Pks13 thioesterase: -15.04%; TcHisRS: 1.724%; MtTrpRS: 2.24%; ClpP1P2: -12.06%. Cc1cnc(N2CCC[C@@H]3CN(CC(=O)N(C)C)C[C@@H]32)nc1 read Pks13 thioesterase: -23.54%; TcHisRS: 2.299%; MtTrpRS: -3.294%; ClpP1P2: -5.222%.

Some entries from above, unchanged:

Compound,Pks13 thioesterase,TcHisRS,MtTrpRS,ClpP1P2
CCCn1nc(-c2nc(COc3ccccc3)no2)ccc1=O,5.561%,10.34%,2.593%,4.977%
CCc1ccccc1OC1CN(C(=O)c2cccs2)C1,9.057%,1.734%,15.47%,3.915%
Cn1cc(C(=O)Nc2cccc(CCN3CCCC3)c2)ccc1=O,-22.62%,2.941%,-1.833%,-0.1072%